Like-named read-outs stand apart in the source and are kept apart here. Results are given in words; binding and its absence hold for the method and conditions named. Some entries that bind do so weakly or less than the wild type.
Assays:
Assay in all cases: PIE-FCCS
Plexin D1 (human) [1] = target: Plexin D1 (human) (UniProt Q9Y4D7)
Plexin D1 (human) [2] = target: Plexin D1 (human) (UniProt Q9Y4D7); remark: listed apart in the source
Plexin A4 = Plexin A4 (human, UniProt Q9HCM2 24-1894)
Plexin A2 (human) [3] = target: Plexin A2 (human) (UniProt O75051)
Plexin A2 (human) [4] = target: Plexin A2 (human) (UniProt O75051); remark: listed apart in the source

Sequences of proteins named here, by UniProt entry; tags and fusion partners are left off. Residues count along the entry.
UniProt Q9Y4D7, residues 47-1925: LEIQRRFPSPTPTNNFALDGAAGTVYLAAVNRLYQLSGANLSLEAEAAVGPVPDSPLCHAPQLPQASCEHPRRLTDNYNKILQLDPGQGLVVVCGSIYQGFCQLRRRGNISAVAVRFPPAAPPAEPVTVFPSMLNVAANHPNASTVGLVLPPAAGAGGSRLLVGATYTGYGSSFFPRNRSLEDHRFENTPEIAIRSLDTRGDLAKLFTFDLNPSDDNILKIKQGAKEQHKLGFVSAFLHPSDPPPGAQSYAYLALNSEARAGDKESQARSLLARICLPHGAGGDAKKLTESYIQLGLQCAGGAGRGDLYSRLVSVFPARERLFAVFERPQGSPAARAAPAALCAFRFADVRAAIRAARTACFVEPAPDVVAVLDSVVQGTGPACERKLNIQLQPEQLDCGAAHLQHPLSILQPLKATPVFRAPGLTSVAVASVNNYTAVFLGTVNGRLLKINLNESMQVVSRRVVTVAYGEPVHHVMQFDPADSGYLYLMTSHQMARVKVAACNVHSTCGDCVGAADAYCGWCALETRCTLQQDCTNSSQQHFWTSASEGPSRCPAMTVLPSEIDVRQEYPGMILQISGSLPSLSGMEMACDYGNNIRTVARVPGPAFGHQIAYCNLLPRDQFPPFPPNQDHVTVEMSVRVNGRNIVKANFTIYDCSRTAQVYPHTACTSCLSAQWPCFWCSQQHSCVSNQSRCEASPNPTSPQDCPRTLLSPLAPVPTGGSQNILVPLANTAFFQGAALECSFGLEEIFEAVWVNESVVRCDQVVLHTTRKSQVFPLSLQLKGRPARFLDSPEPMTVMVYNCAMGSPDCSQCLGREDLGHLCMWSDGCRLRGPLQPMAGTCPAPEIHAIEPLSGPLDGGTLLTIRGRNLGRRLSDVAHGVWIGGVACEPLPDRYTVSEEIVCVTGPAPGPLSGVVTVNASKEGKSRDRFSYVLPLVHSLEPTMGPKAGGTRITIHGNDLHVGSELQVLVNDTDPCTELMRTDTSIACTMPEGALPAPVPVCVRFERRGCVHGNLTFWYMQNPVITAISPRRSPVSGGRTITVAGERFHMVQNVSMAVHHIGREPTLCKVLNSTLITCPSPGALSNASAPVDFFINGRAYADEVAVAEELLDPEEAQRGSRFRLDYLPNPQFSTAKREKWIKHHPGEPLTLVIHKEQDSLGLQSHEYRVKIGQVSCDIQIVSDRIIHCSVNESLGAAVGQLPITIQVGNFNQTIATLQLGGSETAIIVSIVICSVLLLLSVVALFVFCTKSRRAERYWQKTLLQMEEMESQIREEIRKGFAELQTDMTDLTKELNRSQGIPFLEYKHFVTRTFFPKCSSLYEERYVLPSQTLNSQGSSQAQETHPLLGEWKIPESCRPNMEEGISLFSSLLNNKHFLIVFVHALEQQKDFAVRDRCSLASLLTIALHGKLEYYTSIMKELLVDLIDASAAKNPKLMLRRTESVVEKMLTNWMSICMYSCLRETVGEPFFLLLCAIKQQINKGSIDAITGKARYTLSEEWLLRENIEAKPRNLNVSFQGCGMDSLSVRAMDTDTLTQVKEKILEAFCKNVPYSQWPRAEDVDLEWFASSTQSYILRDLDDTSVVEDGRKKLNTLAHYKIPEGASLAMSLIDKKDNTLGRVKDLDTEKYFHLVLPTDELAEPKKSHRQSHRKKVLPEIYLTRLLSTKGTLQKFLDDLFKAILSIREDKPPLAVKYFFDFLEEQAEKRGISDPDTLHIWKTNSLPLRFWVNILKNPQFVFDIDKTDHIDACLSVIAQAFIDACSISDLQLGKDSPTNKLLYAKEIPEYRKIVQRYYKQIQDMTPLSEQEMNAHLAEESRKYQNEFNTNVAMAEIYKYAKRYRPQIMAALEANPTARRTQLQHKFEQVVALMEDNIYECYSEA
UniProt Q9HCM2, residues 24-1894: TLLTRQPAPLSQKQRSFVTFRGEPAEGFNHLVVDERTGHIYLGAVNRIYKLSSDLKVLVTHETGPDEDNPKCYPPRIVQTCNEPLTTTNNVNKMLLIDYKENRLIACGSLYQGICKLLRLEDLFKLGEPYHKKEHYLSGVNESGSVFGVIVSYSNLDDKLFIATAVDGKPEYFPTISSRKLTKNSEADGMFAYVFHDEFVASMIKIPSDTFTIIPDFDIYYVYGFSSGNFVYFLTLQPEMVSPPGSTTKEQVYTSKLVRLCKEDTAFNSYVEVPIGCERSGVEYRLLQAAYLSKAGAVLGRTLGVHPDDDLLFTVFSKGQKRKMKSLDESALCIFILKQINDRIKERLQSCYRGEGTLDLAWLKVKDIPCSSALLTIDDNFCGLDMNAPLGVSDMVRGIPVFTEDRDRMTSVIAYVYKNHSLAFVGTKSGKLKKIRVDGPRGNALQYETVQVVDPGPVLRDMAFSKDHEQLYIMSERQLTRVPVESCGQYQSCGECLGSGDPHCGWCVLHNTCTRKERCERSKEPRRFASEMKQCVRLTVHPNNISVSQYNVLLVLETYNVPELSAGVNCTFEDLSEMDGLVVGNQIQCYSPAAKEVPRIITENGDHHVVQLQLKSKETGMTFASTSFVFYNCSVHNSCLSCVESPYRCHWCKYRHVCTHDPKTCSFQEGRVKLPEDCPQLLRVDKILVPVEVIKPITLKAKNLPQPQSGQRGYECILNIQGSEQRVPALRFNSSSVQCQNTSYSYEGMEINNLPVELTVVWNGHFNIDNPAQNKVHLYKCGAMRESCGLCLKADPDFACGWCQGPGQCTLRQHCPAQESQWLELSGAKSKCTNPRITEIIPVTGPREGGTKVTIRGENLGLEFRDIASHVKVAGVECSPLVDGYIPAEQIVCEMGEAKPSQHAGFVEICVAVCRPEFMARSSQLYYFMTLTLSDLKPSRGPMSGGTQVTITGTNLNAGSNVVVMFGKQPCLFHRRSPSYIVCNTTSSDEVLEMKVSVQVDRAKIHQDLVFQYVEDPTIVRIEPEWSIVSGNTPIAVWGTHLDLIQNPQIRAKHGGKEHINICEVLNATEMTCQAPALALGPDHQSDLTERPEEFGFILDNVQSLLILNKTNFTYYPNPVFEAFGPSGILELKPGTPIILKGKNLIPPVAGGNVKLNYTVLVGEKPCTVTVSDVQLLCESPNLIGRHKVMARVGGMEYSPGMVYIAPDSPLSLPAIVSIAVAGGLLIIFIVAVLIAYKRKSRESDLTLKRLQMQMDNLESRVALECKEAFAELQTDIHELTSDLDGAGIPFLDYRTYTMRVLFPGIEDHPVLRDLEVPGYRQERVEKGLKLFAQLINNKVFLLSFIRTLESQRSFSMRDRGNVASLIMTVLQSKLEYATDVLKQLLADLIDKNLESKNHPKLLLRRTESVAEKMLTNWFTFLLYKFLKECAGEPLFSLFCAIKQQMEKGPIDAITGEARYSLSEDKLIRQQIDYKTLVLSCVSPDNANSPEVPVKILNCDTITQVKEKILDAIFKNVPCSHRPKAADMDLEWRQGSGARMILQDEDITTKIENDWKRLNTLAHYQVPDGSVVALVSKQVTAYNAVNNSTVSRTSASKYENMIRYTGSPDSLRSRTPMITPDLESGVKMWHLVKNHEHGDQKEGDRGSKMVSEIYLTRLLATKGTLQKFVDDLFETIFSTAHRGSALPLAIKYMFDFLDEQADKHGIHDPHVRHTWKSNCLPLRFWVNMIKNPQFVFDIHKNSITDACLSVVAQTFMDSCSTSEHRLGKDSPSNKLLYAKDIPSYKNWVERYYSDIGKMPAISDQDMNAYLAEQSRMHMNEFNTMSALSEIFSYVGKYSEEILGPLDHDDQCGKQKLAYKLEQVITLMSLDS

Molecule | binding (Plexin D1 (human) [1]) | binding (Plexin D1 (human) [2]) | binding (Plexin A4) | binding (Plexin A4; record 2) | binding (Plexin A2 (human) [3]) | binding (Plexin A2 (human) [4])
Plexin A4 (from UniProt Q9HCM2 24-1894) (receptor) | no binding | no binding | binds | binds |  | 
Plexin A2 (receptor, human, UniProt O75051 35-1894, looked up) MPQFSTFHSENRDWTFNHLTVHQGTGAVYVGAINRVYKLTGNLTIQVAHKTGPEEDNKSCYPPLIVQPCSEVLTLTNNVNKLLIIDYSENRLLACGSLYQGVCKLLRLDDLFILVEPSHKKEHYLSSVNKTGTMYGVIVRSEGEDGKLFIGTAVDGKQDYFPTLSSRKLPRDPESSAMLDYELHSDFVSSLIKIPSDTLALVSHFDIFYIYGFASGGFVYFLTVQPETPEGVAINSAGDLFYTSRIVRLCKDDPKFHSYVSLPFGCTRAGVEYRLLQAAYLAKPGDSLAQAFNITSQDDVLFAIFSKGQKQYHHPPDDSALCAFPIRAINLQIKERLQSCYQGEGNLELNWLLGKDVQCTKAPVPIDDNFCGLDINQPLGGSTPVEGLTLYTTSRDRMTSVASYVYNGYSVVFVGTKSGKLKKIRADGPPHGGVQYEMVSVLKDGSPILRDMAFSIDQRYLYVMSERQVTRVPVESCEQYTTCGECLSSGDPHCGWCALHNMCSRRDKCQQAWEPNRFAASISQCVSLAVHPSSISVSEHSRLLSLVVSDAPDLSAGIACAFGNLTEVEGQVSGSQVICISPGPKDVPVIPLDQDWFGLELQLRSKETGKIFVSTEFKFYNCSAHQLCLSCVNSAFRCHWCKYRNLCTHDPTTCSFQEGRINISEDCPQLVPTEEILIPVGEVKPITLKARNLPQPQSGQRGYECVLNIQGAIHRVPALRFNSSSVQCQNSSYQYDGMDISNLAVDFAVVWNGNFIIDNPQDLKVHLYKCAAQRESCGLCLKADRKFECGWCSGERRCTLHQHCTSPSSPWLDWSSHNVKCSNPQITEILTVSGPPEGGTRVTIHGVNLGLDFSEIAHHVQVAGVPCTPLPGEYIIAEQIVCEMGHALVGTTSGPVRLCIGECKPEFMTKSHQQYTFVNPSVLSLNPIRGPESGGTMVTITGHYLGAGSSVAVYLGNQTCEFYGRSMSEIVCVSPPSSNGLGPVPVSVSVDRAHVDSNLQFEYIDDPRVQRIEPEWSIASGHTPLTITGFNLDVIQEPRIRVKFNGKESVNVCKVVNTTTLTCLAPSLTTDYRPGLDTVERPDEFGFVFNNVQSLLIYNDTKFIYYPNPTFELLSPTGVLDQKPGSPIILKGKNLCPPASGGAKLNYTVLIGETPCAVTVSETQLLCEPPNLTGQHKVMVHVGGMVFSPGSVSVISDSLLTLPAIVSIAAGGSLLLIIVIIVLIAYKRKSRENDLTLKRLQMQMDNLESRVALECKEAFAELQTDINELTSDLDRSGIPYLDYRTYAMRVLFPGIEDHPVLRELEVQGNGQQHVEKALKLFAQLINNKVFLLTFIRTLELQRSFSMRDRGNVASLIMTGLQGRLEYATDVLKQLLSDLIDKNLENKNHPKLLLRRTESVAEKMLTNWFAFLLHKFLKECAGEPLFMLYCAIKQQMEKGPIDAITGEARYSLSEDKLIRQQIEYKTLILNCVNPDNENSPEIPVKVLNCDTITQVKEKILDAVYKNVPYSQRPRAVDMDLEWRQGRIARVVLQDEDITTKIEGDWKRLNTLMHYQVSDRSVVALVPKQTSSYNIPASASISRTSISRYDSSFRYTGSPDSLRSRAPMITPDLESGVKVWHLVKNHDHGDQKEGDRGSKMVSEIYLTRLLATKGTLQKFVDDLFETLFSTVHRGSALPLAIKYMFDFLDEQADRHSIHDTDVRHTWKSNCLPLRFWVNVIKNPQFVFDIHKGSITDACLSVVAQTFMDSCSTSEHRLGKDSPSNKLLYAKDIPSYKSWVERYYADIAKLPAISDQDMNAYLAEQSRLHAVEFNMLSALNEIYSYVSKYSEELIGALEQDEQARRQRLAYKVEQLINAMSIES |  |  | binds |  | binds | binds
